{"source": "PubChem BioAssay AID504808 | Drosophila RNAi Screening Center, 2011", "test": "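Chromatin factors that keep E2F targets switched off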 (primary screen)", "system": "Drosophila S2 cells", "reagent": "long dsRNA against Drosophila genes", "measured": "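Firefly luciferase driven by E2F sites, normalised to Renilla luciferase on the same minimal promoter, measured by plate reader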", "scale": "E2F firefly: higher = more E2F reporter activity; Renilla normaliser: higher = more normaliser reporter signal", "hit rule": "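a knock-down counted as active when the firefly/Renilla E2F signal rose above 50%, a threshold chosen arbitrarily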", "note": "The deposit covers about 21,000 reagents; this is a random part of those that have a named target and a result. Of all reagents, 18 (0.084%) were called active. 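Raw counts without plate normalisation, one of two replicates; the ratio scores behind the calls were not deposited.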 Entries without a mark were called inactive. Reagents against one gene are numbered here. Not given: the amount of reagent, the time to read-out."}
{"gene": "Polr3B (GeneID 36289)", "reagent": 1, "E2F firefly, rep 1": 2718, "Renilla normaliser, rep 1": 212}
{"gene": "SerRS (GeneID 33518)", "reagent": 1, "E2F firefly, rep 1": 93686, "Renilla normaliser, rep 1": 3643}
{"gene": "azot (GeneID 35751)", "reagent": 1, "E2F firefly, rep 1": 1.47e5, "Renilla normaliser, rep 1": 4860}
{"gene": "CG5126 (GeneID 33306)", "reagent": 1, "E2F firefly, rep 1": 92519, "Renilla normaliser, rep 1": 3433}
{"gene": "epsilonCOP (GeneID 33908)", "reagent": 1, "E2F firefly, rep 1": 86508, "Renilla normaliser, rep 1": 4102}
{"gene": "CG9485 (GeneID 37435)", "reagent": 1, "E2F firefly, rep 1": 78852, "Renilla normaliser, rep 1": 3290}
{"gene": "Pih1D1 (GeneID 34685)", "reagent": 1, "E2F firefly, rep 1": 77839, "Renilla normaliser, rep 1": 3467}

Continued; the last 2 above are carried over.
{"gene": "CG9485 (GeneID 37435)", "reagent": 1, "E2F firefly, rep 1": 78852, "Renilla normaliser, rep 1": 3290}
{"gene": "Pih1D1 (GeneID 34685)", "reagent": 1, "E2F firefly, rep 1": 77839, "Renilla normaliser, rep 1": 3467}
{"gene": "CG14043 (GeneID 33714)", "reagent": 1, "E2F firefly, rep 1": 1.23e5, "Renilla normaliser, rep 1": 4564}
{"gene": "ND-15 (GeneID 33179)", "reagent": 1, "E2F firefly, rep 1": 94158, "Renilla normaliser, rep 1": 3729}
{"gene": "CG8679 (GeneID 35395)", "reagent": 1, "E2F firefly, rep 1": 99566, "Renilla normaliser, rep 1": 4367}
{"gene": "bif (GeneID 32119)", "reagent": 1, "E2F firefly, rep 1": 85969, "Renilla normaliser, rep 1": 3398}
{"gene": "bif (GeneID 32119)", "reagent": 2, "E2F firefly, rep 1": 8314, "Renilla normaliser, rep 1": 728}
{"gene": "Myo28B1 (GeneID 53515)", "reagent": 1, "E2F firefly, rep 1": 1.68e5, "Renilla normaliser, rep 1": 5320}
{"gene": "l(2)27Cb (retired record) (GeneID 48760)", "reagent": 1, "E2F firefly, rep 1": 1.26e5, "Renilla normaliser, rep 1": 5613}
{"gene": "Rab21 (GeneID 3355163)", "reagent": 1, "E2F firefly, rep 1": 1.34e5, "Renilla normaliser, rep 1": 5223}
{"gene": "ms(2)34Fe (GeneID 34833)", "reagent": 1, "E2F firefly, rep 1": 97210, "Renilla normaliser, rep 1": 4326}
{"gene": "eIF3d1 (GeneID 42789)", "reagent": 1, "E2F firefly, rep 1": 61615, "Renilla normaliser, rep 1": 4989}
{"gene": "tomboy40 (GeneID 35553)", "reagent": 1, "E2F firefly, rep 1": 84107, "Renilla normaliser, rep 1": 3750}
{"gene": "Bug22 (GeneID 34429)", "reagent": 1, "E2F firefly, rep 1": 1.52e5, "Renilla normaliser, rep 1": 5370}
